Test [1] deals with GFP-CtIP-WT (siRNA-resistant N-terminally GFP-tagged CtIP, wildtype) (human) (UniProt Q99708). The test is described as follows: co-IP; GFP-Trap agarose IP of GFP-CtIP constructs from cell lysate (RIPA buffer with NEM, diluted to 150 mM NaCl; washes with 500 mM NaCl), immunoblot; some experiments after siRNA depletion of endogenous CtIP, S phase synchronisation or HU treatment for 4 h.

Protein sequences, listed by entry. Tags and fused reporters are not part of them. Lines headed by an entry give the natural chain unless they say otherwise; changes in a name come on top.
UniProt P49959: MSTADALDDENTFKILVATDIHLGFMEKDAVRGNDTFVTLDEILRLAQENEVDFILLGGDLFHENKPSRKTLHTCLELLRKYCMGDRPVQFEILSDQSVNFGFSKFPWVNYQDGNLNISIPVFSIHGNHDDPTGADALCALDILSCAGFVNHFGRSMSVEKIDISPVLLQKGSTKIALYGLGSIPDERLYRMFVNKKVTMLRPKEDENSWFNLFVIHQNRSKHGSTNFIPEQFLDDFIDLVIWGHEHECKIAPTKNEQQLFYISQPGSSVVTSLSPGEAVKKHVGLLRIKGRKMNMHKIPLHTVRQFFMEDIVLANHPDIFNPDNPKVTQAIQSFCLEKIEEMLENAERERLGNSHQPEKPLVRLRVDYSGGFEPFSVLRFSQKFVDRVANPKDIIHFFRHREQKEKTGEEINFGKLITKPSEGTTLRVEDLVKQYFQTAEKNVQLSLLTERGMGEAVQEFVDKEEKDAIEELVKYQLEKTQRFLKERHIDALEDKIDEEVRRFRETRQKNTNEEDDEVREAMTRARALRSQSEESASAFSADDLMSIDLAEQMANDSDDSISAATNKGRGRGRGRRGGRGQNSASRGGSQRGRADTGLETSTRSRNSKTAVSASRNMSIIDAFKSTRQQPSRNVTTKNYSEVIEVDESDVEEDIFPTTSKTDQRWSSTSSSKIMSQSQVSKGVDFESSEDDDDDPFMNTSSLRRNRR
UniProt P12004: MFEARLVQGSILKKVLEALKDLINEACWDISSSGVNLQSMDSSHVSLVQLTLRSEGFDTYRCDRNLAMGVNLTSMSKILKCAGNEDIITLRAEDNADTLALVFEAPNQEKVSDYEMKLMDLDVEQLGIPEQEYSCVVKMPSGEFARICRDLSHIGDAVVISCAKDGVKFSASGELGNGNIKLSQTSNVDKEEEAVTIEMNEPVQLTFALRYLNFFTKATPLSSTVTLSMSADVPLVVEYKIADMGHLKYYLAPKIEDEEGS

The target in the next test is T1, GFP-CtIP-K578R (human) (UniProt Q99708).
T1 sequence: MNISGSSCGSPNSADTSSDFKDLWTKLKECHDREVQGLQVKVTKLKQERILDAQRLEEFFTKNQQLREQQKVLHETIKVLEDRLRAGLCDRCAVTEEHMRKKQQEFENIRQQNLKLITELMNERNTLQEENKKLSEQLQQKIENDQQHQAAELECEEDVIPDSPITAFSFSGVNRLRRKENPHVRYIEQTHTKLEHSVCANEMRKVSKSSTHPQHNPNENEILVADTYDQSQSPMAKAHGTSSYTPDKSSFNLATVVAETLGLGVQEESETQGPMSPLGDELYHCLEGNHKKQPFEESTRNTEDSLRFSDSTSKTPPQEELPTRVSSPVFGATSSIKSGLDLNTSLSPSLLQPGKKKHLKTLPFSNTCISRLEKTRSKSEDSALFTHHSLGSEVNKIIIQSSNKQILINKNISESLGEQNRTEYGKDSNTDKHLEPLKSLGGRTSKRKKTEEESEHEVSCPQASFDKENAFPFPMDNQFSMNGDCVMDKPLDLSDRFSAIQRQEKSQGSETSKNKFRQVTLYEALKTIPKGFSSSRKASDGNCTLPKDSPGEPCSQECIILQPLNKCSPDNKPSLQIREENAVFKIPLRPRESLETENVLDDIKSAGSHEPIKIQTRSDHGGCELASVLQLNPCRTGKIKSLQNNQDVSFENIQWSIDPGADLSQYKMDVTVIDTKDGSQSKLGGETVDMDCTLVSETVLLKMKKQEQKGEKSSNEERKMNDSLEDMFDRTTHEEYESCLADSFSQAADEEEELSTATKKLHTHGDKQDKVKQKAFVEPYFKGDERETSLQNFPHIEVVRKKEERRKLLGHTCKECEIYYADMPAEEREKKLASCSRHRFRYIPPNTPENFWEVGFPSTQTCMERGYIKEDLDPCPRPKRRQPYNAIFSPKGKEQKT
The test is described as above.

Test [2] addresses GFP-CtIP-WT (siRNA-resistant N-terminally GFP-tagged CtIP, wildtype) (human) (UniProt Q99708). Briefly: co-IP; GFP IP from U-2 OS depleted of endogenous CtIP by siRNA and co-transfected with RFP-PCNA and GFP-CtIP-WT or -Δ515–518; lysis in NETMN buffer (500 mM NaCl, 0.5% IGEPAL CA-630) instead of RIPA, adjusted to a composition similar to Dilution Buffer before mixing with the beads.

Test [3] concerns the target T2, GFP-CtIP-Δ515–518 (human) (UniProt Q99708).
T2 sequence: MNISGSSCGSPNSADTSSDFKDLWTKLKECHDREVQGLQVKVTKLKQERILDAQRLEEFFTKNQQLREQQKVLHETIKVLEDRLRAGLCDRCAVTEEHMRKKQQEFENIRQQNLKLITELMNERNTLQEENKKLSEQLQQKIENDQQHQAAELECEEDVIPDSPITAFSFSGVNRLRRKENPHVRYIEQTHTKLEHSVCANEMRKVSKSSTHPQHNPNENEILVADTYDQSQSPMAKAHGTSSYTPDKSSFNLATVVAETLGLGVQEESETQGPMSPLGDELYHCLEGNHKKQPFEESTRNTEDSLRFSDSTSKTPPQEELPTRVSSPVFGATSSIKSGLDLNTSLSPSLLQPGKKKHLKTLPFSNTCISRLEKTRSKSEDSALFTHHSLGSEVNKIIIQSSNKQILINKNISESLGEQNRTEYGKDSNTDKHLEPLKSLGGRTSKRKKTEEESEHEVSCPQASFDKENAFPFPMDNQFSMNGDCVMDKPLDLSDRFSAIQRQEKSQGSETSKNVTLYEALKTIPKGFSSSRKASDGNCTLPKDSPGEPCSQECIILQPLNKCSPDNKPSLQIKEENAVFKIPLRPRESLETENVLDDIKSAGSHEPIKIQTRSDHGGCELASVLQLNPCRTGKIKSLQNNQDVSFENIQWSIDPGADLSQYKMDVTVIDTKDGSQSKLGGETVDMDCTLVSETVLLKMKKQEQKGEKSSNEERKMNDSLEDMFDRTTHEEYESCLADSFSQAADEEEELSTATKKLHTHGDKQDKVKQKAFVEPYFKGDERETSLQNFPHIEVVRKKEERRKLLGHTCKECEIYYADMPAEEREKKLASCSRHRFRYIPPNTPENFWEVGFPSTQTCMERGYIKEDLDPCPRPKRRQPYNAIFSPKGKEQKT
The description is as above.

Results are given in words; binding and its absence hold for the method and conditions named. Binding seen in cells or lysates may run through a third protein. Some binding calls cover weakened binding; strength is not graded here. For some assays here: Where a sequence is shown, tags or fusion partners need not be part of it.

For the substance “MRN (MRE11–RAD50–NBS1) complex (from UniProt P49959 1-708; Q92878 1-1312; O60934 1-754)”, the binding result (in test [1]; with GFP-CtIP-K578R (human)) was “binds” each time.

For the substance “RFP-PCNA (monomeric red fluorescent protein-tagged proliferating cell nuclear antigen) (from UniProt P12004 1-261)”, the binding result (in test [2]; in test [3]; in test [1]; in the test with GFP-CtIP-K578R (human)) was “binds” throughout.

For “PCNA, endogenous (from UniProt P12004 1-261)”, the binding entry (in test [1]; in the test with GFP-CtIP-K578R (human)) was “binds” in each case.

For the origin of these results see publication PMC7826263.
